Data reported in article PMC10501182.
No constants are given. Whether binding was seen depends on the method and setting. Some results given as binding are weak or reduced against the parent protein; the word gives no strength.

Amino acid sequences for entries named in this document (tags omitted).
UniProt Q9UL03: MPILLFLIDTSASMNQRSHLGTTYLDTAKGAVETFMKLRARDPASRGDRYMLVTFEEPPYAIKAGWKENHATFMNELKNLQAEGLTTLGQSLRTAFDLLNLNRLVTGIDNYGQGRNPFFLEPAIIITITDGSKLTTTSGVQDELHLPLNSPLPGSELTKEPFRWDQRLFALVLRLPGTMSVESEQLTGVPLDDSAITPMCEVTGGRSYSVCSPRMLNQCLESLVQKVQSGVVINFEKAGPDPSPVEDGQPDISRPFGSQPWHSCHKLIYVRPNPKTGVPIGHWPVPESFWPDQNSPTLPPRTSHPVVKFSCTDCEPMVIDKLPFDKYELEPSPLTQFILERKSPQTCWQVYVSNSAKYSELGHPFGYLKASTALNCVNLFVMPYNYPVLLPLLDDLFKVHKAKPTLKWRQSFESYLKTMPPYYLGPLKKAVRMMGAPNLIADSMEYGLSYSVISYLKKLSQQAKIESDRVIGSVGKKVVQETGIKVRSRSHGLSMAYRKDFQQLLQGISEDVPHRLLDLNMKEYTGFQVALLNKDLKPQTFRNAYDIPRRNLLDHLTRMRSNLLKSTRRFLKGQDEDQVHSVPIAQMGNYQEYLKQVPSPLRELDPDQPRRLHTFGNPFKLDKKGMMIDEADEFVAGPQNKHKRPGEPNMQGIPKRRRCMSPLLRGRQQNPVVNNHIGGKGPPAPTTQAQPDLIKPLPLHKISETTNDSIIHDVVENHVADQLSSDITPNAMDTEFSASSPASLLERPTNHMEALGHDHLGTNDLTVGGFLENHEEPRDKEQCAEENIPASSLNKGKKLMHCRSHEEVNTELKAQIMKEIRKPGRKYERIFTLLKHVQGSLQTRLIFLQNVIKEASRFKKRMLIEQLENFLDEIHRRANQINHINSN

Biological target: INTS6 (human) (UniProt Q9UL03)
Experiment: cryo-EM structure; INTAC-PEC assembled from purified human INTAC, NELF, DSIF, S. scrofa Pol II and a DNA-RNA scaffold; gradient fixation (GraFix); map at 4.2 Å, subcomplexes at 3.5-3.8 Å by focused refinement; earlier structures of INTAC and PEC fitted into the maps; both purified

NELF-B (from UniProt Q8WX92 49-628) was tested, and the binding was “binds”.
